The supplement of paper PMC8728848
Some of the results follow.

Columns and labels:
Test in all cases: glycan array binding signal (z-score within array); higher = stronger binding
Settings in all cases: glycan notation: IUPAC condensed, linker removed
[1] = molecular target: Gal(b1-3)GlcNAc(b1-2)Man(a1-3)[Gal(b1-3)GlcNAc(b1-2)Man(a1-6)]Man(b1-4)GlcNAc(b1-4)[Fuc(a1-6)]GlcNAc
How it was run: (§1)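 Arrays were curated from the Consortium for Functional Glycomics database, 3228 in total, and kept only where the protein sequence was available. Binding is expressed as a within-array Z-score. This score was averaged across arrays of the same protein sequence at different concentrations or buffers and across linkers, and negative values can be read as non-binding.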

[2] = molecular target: Gal(b1-3)GlcNAc(b1-2)Man(a1-3)[GlcNAc(b1-4)][Gal(b1-3)GlcNAc(b1-2)Man(a1-6)]Man(b1-4)GlcNAc(b1-4)GlcNAc
How it was run: as §1

[3] = molecular target: Gal(b1-3)GlcNAc(b1-2)[Gal(b1-3)GlcNAc(b1-6)]Man(a1-6)[Gal(b1-3)GlcNAc(b1-2)Man(a1-3)]Man(b1-4)GlcNAc(b1-4)GlcNAc
How it was run: as §1

[4] = molecular target: Gal(b1-3)GlcNAc(b1-3)Gal(b1-3)GlcNAc
How it was run: as §1

[5] = molecular target: Gal(b1-3)GlcNAc(b1-3)Gal(b1-4)Glc
How it was run: as §1

[6] = molecular target: Gal(b1-3)GlcNAc(b1-3)Gal(b1-4)GlcNAc
How it was run: as §1

[7] = molecular target: Gal(b1-3)GlcNAc(b1-3)Gal(b1-4)GlcNAc(b1-2)Man(a1-3)[Gal(b1-3)GlcNAc(b1-3)Gal(b1-4)GlcNAc(b1-2)Man(a1-6)]Man(b1-4)GlcNAc(b1-4)GlcNAc
How it was run: as §1

[8] = molecular target: Gal(b1-3)GlcNAc(b1-3)Gal(b1-4)GlcNAc(b1-2)[Gal(b1-3)GlcNAc(b1-3)Gal(b1-4)GlcNAc(b1-6)]Man(a1-6)[Gal(b1-3)GlcNAc(b1-3)Gal(b1-4)GlcNAc(b1-2)Man(a1-3)]Man(b1-4)GlcNAc(b1-4)[Fuc(a1-6)]GlcNAc
How it was run: as §1

[9] = molecular target: Gal(b1-3)GlcNAc(b1-3)Gal(b1-4)GlcNAc(b1-3)Gal(b1-4)GlcNAc(b1-2)[Gal(b1-3)GlcNAc(b1-3)Gal(b1-4)GlcNAc(b1-3)Gal(b1-4)GlcNAc(b1-6)]Man(a1-6)[Gal(b1-3)GlcNAc(b1-3)Gal(b1-4)GlcNAc(b1-3)Gal(b1-4)GlcNAc(b1-2)Man(a1-3)]Man(b1-4)GlcNAc(b1-4)[Fuc(a1-6)]GlcNAc
How it was run: as §1

[10] = molecular target: Gal(b1-3)GlcNAc(b1-3)Gal(b1-4)GlcNAc(b1-6)[Gal(b1-3)GlcNAc(b1-3)]Gal(b1-4)Glc
How it was run: as §1

[11] = molecular target: Gal(b1-3)GlcNAc(b1-3)Gal(b1-4)[Fuc(a1-3)]GlcNAc
How it was run: as §1

[12] = molecular target: Gal(b1-3)GlcNAc(b1-3)Gal(b1-4)[Fuc(a1-3)]GlcNAc(b1-6)[Gal(b1-3)GlcNAc(b1-3)]Gal(b1-4)Glc
How it was run: as §1

[13] = molecular target: Gal(b1-3)GlcNAc(b1-3)GalNAc
How it was run: as §1

[14] = molecular target: Gal(b1-3)GlcNAc(b1-6)Gal(b1-4)GlcNAc
How it was run: as §1

[15] = molecular target: Gal(b1-3)GlcNAc(b1-6)GalNAc
How it was run: as §1

[16] = molecular target: Gal(b1-3)GlcNAc(b1-6)[Gal(b1-3)]GalNAc
How it was run: as §1

Gal(b1-3)GlcNAc6S = molecular target: Gal(b1-3)GlcNAc6S
How it was run: as §1

[17] = molecular target: Gal(b1-3)[Fuc(a1-4)]GlcNAc
How it was run: as §1

[18] = molecular target: Gal(b1-3)[Fuc(a1-4)]GlcNAc(b1-2)Man
How it was run: as §1

[19] = molecular target: Gal(b1-3)[Fuc(a1-4)]GlcNAc(b1-2)Man(a1-3)[Gal(b1-3)[Fuc(a1-4)]GlcNAc(b1-2)Man(a1-6)]Man(b1-4)GlcNAc(b1-4)[Fuc(a1-6)]GlcNAc
How it was run: as §1

[20] = molecular target: Gal(b1-3)[Fuc(a1-4)]GlcNAc(b1-3)Gal(b1-3)[Fuc(a1-4)]GlcNAc
How it was run: as §1

[21] = molecular target: Gal(b1-3)[Fuc(a1-4)]GlcNAc(b1-3)Gal(b1-4)[Fuc(a1-3)]GlcNAc
How it was run: as §1

[22] = molecular target: Gal(b1-3)[Fuc(a1-4)]GlcNAc(b1-6)GalNAc
How it was run: as §1

[23] = molecular target: Gal(b1-3)[GlcNAc(b1-6)]GalNAc
How it was run: as §1

[24] = molecular target: Gal(b1-3)[Neu5Ac(a2-6)]GalNAc
How it was run: as §1

[25] = molecular target: Gal(b1-3)[Neu5Ac(a2-6)]GlcNAc(b1-4)Gal(b1-4)Glc
How it was run: as §1

[26] = molecular target: Gal(b1-3)[Neu5Ac(b2-6)]GalNAc
How it was run: as §1

Gal(b1-4)Gal = molecular target: Gal(b1-4)Gal
How it was run: as §1

[27] = molecular target: Gal(b1-4)GalNAc(a1-3)[Fuc(a1-2)]Gal(b1-4)GlcNAc
How it was run: as §1

[28] = molecular target: Gal(b1-4)GalNAc(b1-3)[Fuc(a1-2)]Gal(b1-4)GlcNAc
How it was run: as §1

Gal(b1-4)Glc = molecular target: Gal(b1-4)Glc
How it was run: as §1

Gal(b1-4)Glc6S = molecular target: Gal(b1-4)Glc6S
How it was run: as §1

Gal(b1-4)GlcNAc = molecular target: Gal(b1-4)GlcNAc
How it was run: as §1

[29] = molecular target: Gal(b1-4)GlcNAc(a1-6)Gal(b1-4)GlcNAc
How it was run: as §1

Gal(b1-4)GlcNAc(b1-2)Man = molecular target: Gal(b1-4)GlcNAc(b1-2)Man
How it was run: as §1

[30] = molecular target: Gal(b1-4)GlcNAc(b1-2)Man(a1-3)Man(b1-4)GlcNAc(b1-4)GlcNAc
How it was run: as §1

[31] = molecular target: Gal(b1-4)GlcNAc(b1-2)Man(a1-3)[Gal(b1-4)GlcNAc(b1-2)Man(a1-6)]Man(b1-4)GlcNAc(b1-4)GlcNAc
How it was run: as §1

B1: SynCAM (Mus musculus) (protein)
chain: MASAVLPSGSQCAAAAAVAAAAAPPGLRLRLLLLLLSAAALIPTGDGQNLFTKDVTVIEGEVATISCQVNKSDDSVIQLLNPNRQTIYFRDFRPLKDSRFQLLNFSSSELKVSLTNVSISDEGRYFCQLYTDPPQESYTTITVLVPPRNLMIDIQKDTAVEGEEIEVNCTAMASKPATTIRWFKGNKELKGKSEVEEWSDMYTVTSQLMLKVHKEDDGVPVICQVEHPAVTGNLQTQRYLEVQYKPQVHIQMTYPLQGLTREGDAFELTCEAIGKPQPVMVTWVRVDDEMPQHAVLSGPNLFINNLNKTDNGTYRCEASNIVGKAHSDYMLYVYDPPTTIPPP
glycan array binding signal (z-score) [1]: -0.265
glycan array binding signal (z-score) [2]: -0.502
glycan array binding signal (z-score) [3]: -0.302
glycan array binding signal (z-score) [4]: -0.609
glycan array binding signal (z-score) [5]: 0.308
glycan array binding signal (z-score) [6]: -0.523
glycan array binding signal (z-score) [7]: -0.019
glycan array binding signal (z-score) [8]: 2.36
glycan array binding signal (z-score) [9]: 2.43
glycan array binding signal (z-score) [10]: -0.891
glycan array binding signal (z-score) [11]: -1.13
glycan array binding signal (z-score) [12]: -0.721
glycan array binding signal (z-score) [13]: 0.053
glycan array binding signal (z-score) [14]: -0.679
glycan array binding signal (z-score) [15]: -0.585
glycan array binding signal (z-score) [16]: -0.035
glycan array binding signal (z-score) (Gal(b1-3)GlcNAc6S): 0.309
glycan array binding signal (z-score) [17]: -0.638
glycan array binding signal (z-score) [18]: 0.627
glycan array binding signal (z-score) [19]: -0.347
glycan array binding signal (z-score) [20]: -1.15
glycan array binding signal (z-score) [21]: -0.481
glycan array binding signal (z-score) [22]: 0.272
glycan array binding signal (z-score) [23]: 0.464
glycan array binding signal (z-score) [24]: -0.488
glycan array binding signal (z-score) [25]: -0.76
glycan array binding signal (z-score) [26]: -0.562
glycan array binding signal (z-score) (Gal(b1-4)Gal): -0.298
glycan array binding signal (z-score) [27]: -0.876
glycan array binding signal (z-score) [28]: -0.623
glycan array binding signal (z-score) (Gal(b1-4)Glc): -0.359
glycan array binding signal (z-score) (Gal(b1-4)Glc6S): 0.23
glycan array binding signal (z-score) (Gal(b1-4)GlcNAc): -1
glycan array binding signal (z-score) [29]: -0.529
glycan array binding signal (z-score) (Gal(b1-4)GlcNAc(b1-2)Man): -0.133
glycan array binding signal (z-score) [30]: -1.2
glycan array binding signal (z-score) [31]: -0.664
